The values that follow come from the supplement of paper PMC10849652.

Amino acid sequences for entries named in this document (tags omitted). A change or cut given only in a name is not applied to a line headed by its entry.
UniProt Q96JJ3: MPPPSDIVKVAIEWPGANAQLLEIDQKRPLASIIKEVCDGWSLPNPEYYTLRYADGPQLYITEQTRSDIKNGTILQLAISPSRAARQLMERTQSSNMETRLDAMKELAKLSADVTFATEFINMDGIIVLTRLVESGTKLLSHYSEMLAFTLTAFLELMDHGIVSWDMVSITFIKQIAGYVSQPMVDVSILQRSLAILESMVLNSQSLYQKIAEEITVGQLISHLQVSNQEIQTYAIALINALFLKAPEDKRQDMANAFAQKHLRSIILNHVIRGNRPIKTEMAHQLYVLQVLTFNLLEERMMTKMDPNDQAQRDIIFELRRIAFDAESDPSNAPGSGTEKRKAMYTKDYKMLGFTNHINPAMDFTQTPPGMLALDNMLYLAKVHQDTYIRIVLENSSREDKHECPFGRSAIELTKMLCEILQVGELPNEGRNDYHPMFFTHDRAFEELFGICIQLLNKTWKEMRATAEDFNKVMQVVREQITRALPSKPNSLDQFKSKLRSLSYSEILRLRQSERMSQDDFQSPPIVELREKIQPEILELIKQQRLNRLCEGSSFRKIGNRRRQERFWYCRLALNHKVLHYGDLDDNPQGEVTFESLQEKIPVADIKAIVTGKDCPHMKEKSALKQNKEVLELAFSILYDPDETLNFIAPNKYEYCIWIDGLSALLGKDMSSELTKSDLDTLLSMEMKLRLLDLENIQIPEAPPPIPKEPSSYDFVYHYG
UniProt Q5UCC4: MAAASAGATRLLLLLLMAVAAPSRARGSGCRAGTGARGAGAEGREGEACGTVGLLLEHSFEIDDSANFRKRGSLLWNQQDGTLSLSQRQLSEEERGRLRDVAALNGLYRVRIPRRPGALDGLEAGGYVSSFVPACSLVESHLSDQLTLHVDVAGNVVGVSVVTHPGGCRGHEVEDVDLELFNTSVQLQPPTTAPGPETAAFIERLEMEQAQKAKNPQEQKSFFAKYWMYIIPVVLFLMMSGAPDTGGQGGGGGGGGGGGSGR
UniProt Q13541: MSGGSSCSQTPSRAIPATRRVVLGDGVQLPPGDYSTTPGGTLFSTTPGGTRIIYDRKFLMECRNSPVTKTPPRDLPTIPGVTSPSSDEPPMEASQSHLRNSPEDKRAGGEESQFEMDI
UniProt P42566: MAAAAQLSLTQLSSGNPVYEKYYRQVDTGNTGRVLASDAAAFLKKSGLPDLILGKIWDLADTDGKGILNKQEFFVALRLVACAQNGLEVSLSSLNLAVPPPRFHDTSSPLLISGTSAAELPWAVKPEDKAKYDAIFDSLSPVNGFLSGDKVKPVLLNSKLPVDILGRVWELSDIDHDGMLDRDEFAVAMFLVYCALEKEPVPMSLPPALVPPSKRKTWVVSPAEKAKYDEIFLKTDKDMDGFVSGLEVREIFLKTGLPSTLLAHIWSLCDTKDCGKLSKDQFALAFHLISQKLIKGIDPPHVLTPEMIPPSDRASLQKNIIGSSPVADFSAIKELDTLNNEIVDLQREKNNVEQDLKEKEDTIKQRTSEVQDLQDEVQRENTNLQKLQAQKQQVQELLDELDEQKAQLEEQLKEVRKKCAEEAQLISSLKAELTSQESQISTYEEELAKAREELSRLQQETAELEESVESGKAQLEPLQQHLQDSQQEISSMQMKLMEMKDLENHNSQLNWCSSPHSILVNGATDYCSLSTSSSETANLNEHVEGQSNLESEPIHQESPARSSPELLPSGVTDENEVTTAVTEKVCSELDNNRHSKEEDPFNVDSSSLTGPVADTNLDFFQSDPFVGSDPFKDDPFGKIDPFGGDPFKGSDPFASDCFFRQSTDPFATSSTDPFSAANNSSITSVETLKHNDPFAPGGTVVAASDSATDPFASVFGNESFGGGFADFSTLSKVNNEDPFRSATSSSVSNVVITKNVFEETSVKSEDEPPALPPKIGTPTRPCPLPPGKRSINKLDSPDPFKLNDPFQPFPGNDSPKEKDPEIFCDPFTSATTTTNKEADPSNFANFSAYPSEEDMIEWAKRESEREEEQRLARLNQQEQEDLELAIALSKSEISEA
UniProt Q92889: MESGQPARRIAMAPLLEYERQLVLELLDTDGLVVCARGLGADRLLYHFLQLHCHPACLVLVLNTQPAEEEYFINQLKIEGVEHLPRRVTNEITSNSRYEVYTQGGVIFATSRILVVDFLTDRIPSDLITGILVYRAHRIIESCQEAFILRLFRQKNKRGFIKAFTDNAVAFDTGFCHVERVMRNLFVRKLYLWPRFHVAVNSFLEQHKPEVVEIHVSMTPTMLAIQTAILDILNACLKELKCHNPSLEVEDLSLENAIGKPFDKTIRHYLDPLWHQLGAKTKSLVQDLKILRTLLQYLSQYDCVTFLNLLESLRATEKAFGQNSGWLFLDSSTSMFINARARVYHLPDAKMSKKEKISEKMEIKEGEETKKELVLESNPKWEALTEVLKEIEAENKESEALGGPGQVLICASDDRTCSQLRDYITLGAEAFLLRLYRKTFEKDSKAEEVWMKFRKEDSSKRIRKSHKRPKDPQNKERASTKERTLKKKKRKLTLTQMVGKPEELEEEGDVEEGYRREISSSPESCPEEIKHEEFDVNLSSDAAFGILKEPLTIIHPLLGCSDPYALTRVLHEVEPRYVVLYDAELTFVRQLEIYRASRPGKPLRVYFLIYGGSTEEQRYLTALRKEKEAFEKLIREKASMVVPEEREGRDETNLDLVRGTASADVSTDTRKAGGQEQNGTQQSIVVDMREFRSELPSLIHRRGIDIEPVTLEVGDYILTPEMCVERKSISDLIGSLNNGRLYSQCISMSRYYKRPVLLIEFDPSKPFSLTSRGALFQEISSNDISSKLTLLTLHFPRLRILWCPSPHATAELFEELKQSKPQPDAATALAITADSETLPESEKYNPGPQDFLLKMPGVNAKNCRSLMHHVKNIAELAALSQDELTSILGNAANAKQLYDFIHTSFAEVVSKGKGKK
UniProt Q8N766: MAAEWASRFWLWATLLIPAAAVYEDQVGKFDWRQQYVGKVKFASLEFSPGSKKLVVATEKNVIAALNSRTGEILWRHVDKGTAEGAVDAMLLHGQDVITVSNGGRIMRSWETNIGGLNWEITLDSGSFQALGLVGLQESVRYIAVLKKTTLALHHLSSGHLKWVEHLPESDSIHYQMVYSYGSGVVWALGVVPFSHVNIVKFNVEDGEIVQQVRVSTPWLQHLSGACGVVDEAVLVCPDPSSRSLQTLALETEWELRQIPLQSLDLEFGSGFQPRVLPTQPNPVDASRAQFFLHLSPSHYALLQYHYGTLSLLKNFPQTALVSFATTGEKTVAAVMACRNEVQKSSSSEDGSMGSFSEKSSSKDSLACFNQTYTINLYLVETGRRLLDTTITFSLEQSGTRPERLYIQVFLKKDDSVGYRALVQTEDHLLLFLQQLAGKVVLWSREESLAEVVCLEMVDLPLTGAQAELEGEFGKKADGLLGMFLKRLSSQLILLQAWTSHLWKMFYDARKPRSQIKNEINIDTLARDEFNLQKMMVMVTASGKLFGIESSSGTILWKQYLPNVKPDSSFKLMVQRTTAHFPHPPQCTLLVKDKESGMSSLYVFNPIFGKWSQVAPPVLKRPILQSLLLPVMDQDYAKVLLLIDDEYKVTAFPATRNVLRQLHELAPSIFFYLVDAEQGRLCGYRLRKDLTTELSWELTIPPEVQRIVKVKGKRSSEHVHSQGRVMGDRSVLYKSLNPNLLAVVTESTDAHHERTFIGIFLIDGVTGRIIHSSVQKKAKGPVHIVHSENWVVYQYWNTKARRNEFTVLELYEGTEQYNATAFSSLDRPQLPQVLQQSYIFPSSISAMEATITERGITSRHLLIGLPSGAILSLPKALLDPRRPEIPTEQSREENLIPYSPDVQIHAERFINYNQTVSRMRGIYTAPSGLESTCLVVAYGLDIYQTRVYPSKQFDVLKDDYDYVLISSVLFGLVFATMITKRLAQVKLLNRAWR
UniProt Q15723: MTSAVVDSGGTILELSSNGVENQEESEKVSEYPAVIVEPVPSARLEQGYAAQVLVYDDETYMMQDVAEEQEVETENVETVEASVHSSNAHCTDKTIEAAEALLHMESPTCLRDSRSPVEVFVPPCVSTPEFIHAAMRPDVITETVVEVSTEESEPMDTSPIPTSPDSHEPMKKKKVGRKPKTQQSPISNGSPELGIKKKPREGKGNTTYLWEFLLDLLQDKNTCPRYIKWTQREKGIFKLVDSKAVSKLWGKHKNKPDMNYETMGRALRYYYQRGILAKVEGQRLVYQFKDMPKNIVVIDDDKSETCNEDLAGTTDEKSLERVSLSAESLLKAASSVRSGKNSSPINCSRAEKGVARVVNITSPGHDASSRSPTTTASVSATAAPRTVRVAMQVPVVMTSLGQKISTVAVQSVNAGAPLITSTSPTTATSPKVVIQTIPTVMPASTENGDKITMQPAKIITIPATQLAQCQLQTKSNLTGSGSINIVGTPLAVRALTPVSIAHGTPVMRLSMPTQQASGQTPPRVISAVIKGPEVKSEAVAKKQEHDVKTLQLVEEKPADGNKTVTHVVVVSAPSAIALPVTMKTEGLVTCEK
UniProt Q13144, whole entry, looked up: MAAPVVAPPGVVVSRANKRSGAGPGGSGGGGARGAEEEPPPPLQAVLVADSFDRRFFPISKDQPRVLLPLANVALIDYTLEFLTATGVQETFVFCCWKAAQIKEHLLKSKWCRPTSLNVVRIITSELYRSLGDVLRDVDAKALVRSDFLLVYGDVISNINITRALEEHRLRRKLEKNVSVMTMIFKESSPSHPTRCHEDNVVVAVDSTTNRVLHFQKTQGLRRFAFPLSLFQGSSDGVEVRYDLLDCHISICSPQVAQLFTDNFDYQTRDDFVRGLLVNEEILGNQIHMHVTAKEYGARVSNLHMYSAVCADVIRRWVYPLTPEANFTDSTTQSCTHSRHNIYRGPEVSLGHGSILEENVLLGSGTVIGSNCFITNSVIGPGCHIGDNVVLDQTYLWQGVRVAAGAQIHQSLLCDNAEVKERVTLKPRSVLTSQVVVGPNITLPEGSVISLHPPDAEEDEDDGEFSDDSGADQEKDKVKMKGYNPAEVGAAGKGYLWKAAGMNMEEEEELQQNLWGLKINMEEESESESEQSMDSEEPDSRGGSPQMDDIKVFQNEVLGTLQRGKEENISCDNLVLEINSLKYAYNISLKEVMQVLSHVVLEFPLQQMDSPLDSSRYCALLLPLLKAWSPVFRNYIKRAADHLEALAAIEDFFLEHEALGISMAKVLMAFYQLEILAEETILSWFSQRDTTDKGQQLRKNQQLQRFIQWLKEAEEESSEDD
UniProt O60841: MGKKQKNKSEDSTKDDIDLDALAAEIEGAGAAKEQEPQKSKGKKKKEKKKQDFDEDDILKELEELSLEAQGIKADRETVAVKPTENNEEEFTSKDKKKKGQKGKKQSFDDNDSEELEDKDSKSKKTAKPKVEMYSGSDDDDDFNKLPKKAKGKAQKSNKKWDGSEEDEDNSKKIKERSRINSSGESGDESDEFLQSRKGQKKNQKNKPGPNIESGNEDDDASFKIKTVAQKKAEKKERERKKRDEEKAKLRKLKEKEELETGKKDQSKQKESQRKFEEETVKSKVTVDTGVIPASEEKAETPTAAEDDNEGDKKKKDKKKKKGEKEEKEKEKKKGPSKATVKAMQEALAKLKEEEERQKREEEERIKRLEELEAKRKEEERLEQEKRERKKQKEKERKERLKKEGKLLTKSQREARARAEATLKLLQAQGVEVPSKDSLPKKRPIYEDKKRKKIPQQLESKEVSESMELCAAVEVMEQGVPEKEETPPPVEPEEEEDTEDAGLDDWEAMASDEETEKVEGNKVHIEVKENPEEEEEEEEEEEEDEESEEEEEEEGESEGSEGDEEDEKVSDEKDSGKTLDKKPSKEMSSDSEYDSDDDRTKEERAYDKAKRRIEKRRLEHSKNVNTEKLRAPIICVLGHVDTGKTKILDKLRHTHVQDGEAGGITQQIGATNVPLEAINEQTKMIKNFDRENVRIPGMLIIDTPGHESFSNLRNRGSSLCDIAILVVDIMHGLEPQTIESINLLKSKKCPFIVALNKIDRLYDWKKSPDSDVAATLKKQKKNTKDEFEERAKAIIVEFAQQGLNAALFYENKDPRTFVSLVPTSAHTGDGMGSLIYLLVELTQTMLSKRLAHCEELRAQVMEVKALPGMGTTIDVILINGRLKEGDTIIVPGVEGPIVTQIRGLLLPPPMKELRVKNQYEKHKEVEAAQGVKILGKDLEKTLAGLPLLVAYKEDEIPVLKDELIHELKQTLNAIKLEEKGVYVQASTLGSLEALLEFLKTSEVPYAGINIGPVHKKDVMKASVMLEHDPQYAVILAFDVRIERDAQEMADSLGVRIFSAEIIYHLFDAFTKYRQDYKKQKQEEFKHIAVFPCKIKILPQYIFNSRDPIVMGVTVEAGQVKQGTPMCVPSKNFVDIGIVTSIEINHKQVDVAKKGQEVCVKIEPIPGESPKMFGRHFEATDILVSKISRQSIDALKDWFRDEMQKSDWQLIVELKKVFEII
UniProt P84090, whole entry, looked up: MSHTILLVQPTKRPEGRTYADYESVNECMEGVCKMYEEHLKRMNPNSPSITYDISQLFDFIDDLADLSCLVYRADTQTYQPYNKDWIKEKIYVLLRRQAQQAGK

The other results are listed elsewhere or left out.

Compound in one experiment: NCC(=O)Nc1ccc(-n2nc(C(F)(F)F)cc2-c2ccc3c(ccc4ccccc43)c2)cc1
The experiment can be described thus: log2 fold change, soluble protein after heating vs DMSO (PISA); higher = thermal stabilisation; K562 lysate, 10 uM; active = over 0.2 and 3.5 SD of the protein, either way, in both replicates (recomputed). The method in brief: (§1)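 Following dounce homogenisation of K562 pellets in PBS pH 7.4 with 1 mM MgCl2, crude extract at 1 mg/mL protein was incubated for 30 min with 10 μM compound. Aliquots were then heated for 3 min over 48°C-58°C and pooled, NP-40 was added to 0.5% at 4°C, and soluble protein was recovered as the supernatant at 21,000xg for 90 min. Channel-sum-equalised TMTpro 16plex LC-MS/MS quantified this protein. Each value, from duplicates, is a log-two fold change in thermal stability relative to solvent controls.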
ELMO2 (UniProt Q96JJ3): the log2 fold change is inactive: 0.077.
The same measure, in the same setting: the result for EP400 isoform 5 (UniProt Q96L91) reads inactive: -0.047; that for EMC10 (UniProt Q5UCC4), inactive: 0.004.
Same read-out and setting: the result for EIF4G3, A0A0U1RQK7 reads inactive: -0.013; that for EMC6 (UniProt Q9BV81), inactive: 0.032; that for ERAL1 (UniProt O75616), inactive: -0.013.
Same read-out and setting: next, ENDOG (UniProt Q14249): inactive: 0.004; EIF4E isoform 2 (UniProt P06730): inactive: -0.001; EIF4EBP1 (UniProt Q13541): inactive: 0.065.
Take ELP4 (UniProt Q96EB1): the log2 fold change is inactive: -0.023.
For the target EIF4E2 (UniProt O60573), the log2 fold change was inactive: 0.037.
As for ELMO1 (UniProt Q92556), the log2 fold change was inactive: -0.023.
On the same count and under the same terms, the result for EPS15 (UniProt P42566) reads inactive: 0.007; that for ERCC4 (UniProt Q92889), inactive: 0.026; that for EMC1 (UniProt Q8N766), inactive: 0.001.
With ELOVL6 (UniProt Q9H5J4), the log2 fold change is inactive: -0.043.
With ELOB (UniProt Q15370), the log2 fold change is inactive: -0.108.
Still for that read-out and setting: the result for EIF3K (UniProt Q9UBQ5) reads inactive: -0.072.
For EPB41L2 (UniProt O43491), the log2 fold change was inactive: 0.01.
The same measure, in the same setting: next, ELF2 (UniProt Q15723): inactive: 0.03; EMP3 (UniProt P54852): inactive: 0.013.
Turning to ERF (UniProt P50548), the log2 fold change is inactive: 0.144.
Still for that read-out and setting: next, EIF2B5 (UniProt Q13144): inactive: 0.013.
Same read-out and setting: the result for EIF5B (UniProt O60841) reads inactive: 0.021; that for ELAVL4 (UniProt P26378), inactive: 0.016.
The same measure, in the same setting: next, EIF4H (UniProt Q15056): inactive: -0.041; EIF2B3 (UniProt Q9NR50): inactive: -0.006; EPS15L1 isoform 2 (UniProt Q9UBC2): inactive: 0.004.
Regarding EIF5A isoform 2 (UniProt P63241), the log2 fold change was inactive: -0.021.
Consider EPB41L3 (UniProt Q9Y2J2), for which the log2 fold change is inactive: -0.076.
For the target ERH (UniProt P84090), the log2 fold change was inactive: -0.049.
Same read-out and setting: next, EIF3M (UniProt Q7L2H7): inactive: -0.006; EIF2D (UniProt P41214): inactive: 0.03.

Compound in the next experiment: O=C(CCCCCCC(=O)Nc1ccccc1)NO [vorinostat]
The experiment is described as above. The method in brief: as §1
As to ELMO2 (UniProt Q96JJ3), the log2 fold change is inactive: -0.194.
Same read-out and setting: the result for EP400 isoform 5 (UniProt Q96L91) reads active: -0.279; that for EMC10 (UniProt Q5UCC4), inactive: 0.149.
On the same count and under the same terms, the result for EIF4G3, A0A0U1RQK7 reads inactive: -0.201; that for EMC6 (UniProt Q9BV81), inactive: 0.109.
Still for that read-out and setting: next, ERAL1 (UniProt O75616): inactive: -0.103; ENDOG (UniProt Q14249): inactive: 0.044.
With EIF4E isoform 2 (UniProt P06730), the log2 fold change is inactive: -0.057.
Same read-out and setting: next, EIF4EBP1 (UniProt Q13541): inactive: 0.079; ELP4 (UniProt Q96EB1): inactive: -0.18; EIF4E2 (UniProt O60573): inactive: -0.048.
Regarding ELMO1 (UniProt Q92556), the log2 fold change was inactive: 0.015.
Still for that read-out and setting: the result for EPS15 (UniProt P42566) reads inactive: 0.105.
Regarding ERCC4 (UniProt Q92889), the log2 fold change was active: -0.241.
Same read-out and setting: next, EMC1 (UniProt Q8N766): inactive: 0.092.
The same measure, in the same setting: next, ELOVL6 (UniProt Q9H5J4): inactive: 0.094; ELOB (UniProt Q15370): inactive: 0.077.
Same read-out and setting: the result for EIF3K (UniProt Q9UBQ5) reads inactive: -0.018; that for EPB41L2 (UniProt O43491), inactive: 0.056; that for ELF2 (UniProt Q15723), inactive: -0.25.
In the case of EMP3 (UniProt P54852), the log2 fold change is inactive: -0.022.
On the same count and under the same terms, the result for ERF (UniProt P50548) reads inactive: 0.036; that for EIF2B5 (UniProt Q13144), active: -0.227.
EIF5B (UniProt O60841): the log2 fold change was inactive: -0.032.
As for ELAVL4 (UniProt P26378), the log2 fold change is active: -0.402.
Still for that read-out and setting: next, EIF4H (UniProt Q15056): inactive: 0.108; EIF2B3 (UniProt Q9NR50): active: -0.244; EPS15L1 isoform 2 (UniProt Q9UBC2): inactive: 0.108.
On the same count and under the same terms, next, EIF5A isoform 2 (UniProt P63241): inactive: 0.058; EPB41L3 (UniProt Q9Y2J2): inactive: 0.031; ERH (UniProt P84090): inactive: 0.081.
The same measure, in the same setting: next, EIF3M (UniProt Q7L2H7): inactive: -0.101.
With EIF2D (UniProt P41214), the log2 fold change is active: -0.385.

Compound in another experiment: O=C(O)c1ccc2c(c1)nc(Nc1cccc(Cl)c1)c1ccncc12 [silmitasertib]
Described as above. The gist of the method: as §1
Consider ELMO2 (UniProt Q96JJ3), for which the log2 fold change is inactive: 0.057.
EP400 isoform 5 (UniProt Q96L91): the log2 fold change is inactive: 0.024.
The same measure, in the same setting: the result for EMC10 (UniProt Q5UCC4) reads inactive: -0.005; that for EIF4G3, A0A0U1RQK7, inactive: -0.014; that for EMC6 (UniProt Q9BV81), inactive: -0.083.
The same measure, in the same setting: next, ERAL1 (UniProt O75616): inactive: 0.044; ENDOG (UniProt Q14249): inactive: -0.023; EIF4E isoform 2 (UniProt P06730): inactive: 0.089.
The same measure, in the same setting: next, EIF4EBP1 (UniProt Q13541): inactive: 0.012; ELP4 (UniProt Q96EB1): inactive: 0.014.
Consider EIF4E2 (UniProt O60573), for which the log2 fold change is inactive: -0.011.
Still for that read-out and setting: next, ELMO1 (UniProt Q92556): inactive: -0.017; EPS15 (UniProt P42566): inactive: -0.013.
On the same count and under the same terms, next, ERCC4 (UniProt Q92889): inactive: 0.002.
Same read-out and setting: next, EMC1 (UniProt Q8N766): inactive: 0.008; ELOVL6 (UniProt Q9H5J4): inactive: 0.005.
As to ELOB (UniProt Q15370), the log2 fold change is inactive: -0.048.
Same read-out and setting: the result for EIF3K (UniProt Q9UBQ5) reads inactive: 0.083; that for EPB41L2 (UniProt O43491), inactive: -0.009; that for ELF2 (UniProt Q15723), inactive: 0.
As for EMP3 (UniProt P54852), the log2 fold change was inactive: -0.05.
The same measure, in the same setting: the result for ERF (UniProt P50548) reads inactive: -0.204; that for EIF2B5 (UniProt Q13144), inactive: -0.009; that for EIF5B (UniProt O60841), inactive: 0.02.
The same measure, in the same setting: next, ELAVL4 (UniProt P26378): inactive: -0.046; EIF4H (UniProt Q15056): inactive: -0.01.
EIF2B3 (UniProt Q9NR50): the log2 fold change was inactive: 0.01.
For the target EPS15L1 isoform 2 (UniProt Q9UBC2), the log2 fold change is inactive: -0.007.
Same read-out and setting: the result for EIF5A isoform 2 (UniProt P63241) reads inactive: -0.007; that for EPB41L3 (UniProt Q9Y2J2), inactive: 0.024; that for ERH (UniProt P84090), inactive: -0.053.
Same read-out and setting: next, EIF3M (UniProt Q7L2H7): inactive: 0.014; EIF2D (UniProt P41214): inactive: 0.032.
